Source: publication PMC9969397, “Rhenium(V) Complexes as Cysteine-Targeting Coordinate Covalent Warheads” (Journal of Medicinal Chemistry, 2023)

Test: Interactions with amino acids (HPLC): cysteine derivative

## ReO(2,2′-thiodiethanethiol)(water) Trifluoromethanesulfonate [Compound 3]
equimolar, water, 37 °C, 24 h
  reactivity with tert-butoxycarbonyl-L-cysteine methyl ester: full conversion
Incubation 4 h
  reactivity with tert-butoxycarbonyl-L-cysteine methyl ester: complete conversion
